For some assays here: Negatives hold for the conditions tested. For some assays here: Protein sequences can lack the tags named with them. For some assays here: For at least one entry, the source does not settle the construct or the ends of the probe. For some assays here: Where cells or extracts were used, other partners may take part. For some assays here: The direction of at least one scale is not stated here.
Assays:
[1] = test system: hemoglobin; experiment: immunofluorescence microscopy; settings: haemoglobin cooked, aged ceramic shard; 5' biotin; microscopy: aptamer overnight at room temperature, wash PBS + 5 mM MgCl2; commercial protein; label: 5' biotin; single-stranded DNA
[2] = molecular target: T1, ovalbumin (UniProt P01012); experiment: immunofluorescence microscopy; settings: ovalbumin cooked, aged ceramic shard; 5' biotin; microscopy: aptamer overnight at room temperature, wash PBS + 5 mM MgCl2; commercial protein; label: 5' biotin; single-stranded DNA
T1 sequence (looked up, limits assumed): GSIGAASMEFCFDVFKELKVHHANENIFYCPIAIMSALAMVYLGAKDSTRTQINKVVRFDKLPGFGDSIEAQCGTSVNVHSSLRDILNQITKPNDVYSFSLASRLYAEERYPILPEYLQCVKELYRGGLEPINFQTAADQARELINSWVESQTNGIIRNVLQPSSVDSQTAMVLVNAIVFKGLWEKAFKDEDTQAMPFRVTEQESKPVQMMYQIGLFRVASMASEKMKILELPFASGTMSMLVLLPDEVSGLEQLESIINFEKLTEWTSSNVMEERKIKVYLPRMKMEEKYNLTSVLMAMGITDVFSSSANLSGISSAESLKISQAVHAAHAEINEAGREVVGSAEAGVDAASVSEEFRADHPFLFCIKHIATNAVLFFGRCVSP

Sequences of proteins named here, by UniProt entry; tags and fusion partners are left off. Residues count along the entry.
UniProt P02192, 2-154: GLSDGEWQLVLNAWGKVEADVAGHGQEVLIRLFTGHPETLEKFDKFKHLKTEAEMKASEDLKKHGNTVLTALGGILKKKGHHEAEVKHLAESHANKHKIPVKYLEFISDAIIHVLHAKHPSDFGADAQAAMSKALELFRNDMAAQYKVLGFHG

[3] = molecular target: lysozyme (chicken) (UniProt P00698); experiment: immunofluorescence microscopy; settings: lysozyme cooked, aged ceramic shard; 5' biotin; microscopy: aptamer overnight at room temperature, wash PBS + 5 mM MgCl2; commercial protein; label: 5' biotin; single-stranded DNA
[4] = molecular target: lysozyme (chicken) (UniProt P00698); experiment: ELISA; settings: signal at MilliQ control level; 5' biotin; ELISA: suspension coated in 100 mM NaHCO3 pH 9.6, 5% CSA block, aptamer in Base Pair Aptamer Folding Buffer, washes 0.02% Tween-20 in PBS; commercial protein; label: 5' biotin; single-stranded DNA; counted as no binding
[5] = test system: gelatin (collagen) (bovine skin); experiment: immunofluorescence microscopy; settings: gelatin cooked, aged ceramic shard; 5' biotin; microscopy: aptamer overnight at room temperature, wash PBS + 5 mM MgCl2; native protein; label: 5' biotin; single-stranded DNA
[6] = molecular target: bovine serum albumin (bovine) (UniProt P02769); experiment: ELISA; settings: BSA 10 ug/ml; 5' biotin; ELISA: suspension coated in 100 mM NaHCO3 pH 9.6, 5% CSA block, aptamer in Base Pair Aptamer Folding Buffer, washes 0.02% Tween-20 in PBS; commercial protein; label: 5' biotin; single-stranded DNA; counted as no binding
[7] = molecular target: myoglobin (UniProt P02192); experiment: ELISA; settings: raw beef suspension; 5' biotin; ELISA: suspension coated in 100 mM NaHCO3 pH 9.6, 5% CSA block, aptamer in Base Pair Aptamer Folding Buffer, washes 0.02% Tween-20 in PBS; protein in an extract; label: 5' biotin; single-stranded DNA

TTAGCGAGCTGCACACACAATGGACTCGTCATACCGTGCTGTTT [HA]
binding result [1]: binds

AGCAGCACAGAGGTCAGATGGCAGCTAAGCAGGCGGCTCACAAAACCATTCGCATGCGGCCCTATGCGTGCTACCGTGAA [Apt1L]
binding result [2]: no binding | binding result [3]: no binding | binding signal [4]: 0.037 OD405

TTTTTGGTTGACGGCAGTCGGCGGTATGCGCATATCGTGTTGGTA [D1]
binding result [5]: binds

GGCAGGAAGACAAACACCAGGTGAGGGAGACGACGCGAGTGTTAGATGGTAGCTGTTGGTCTGTGGTGCTGT [Hb]
binding result [1]: no binding

ATCAGGGCTAAAGAGTGCAGAGTTACTTAG [Clone1]
binding result [2]: no binding | binding signal [6]: 0.027 OD405

CCCTCCTTTCCTTCGACGTAGATCTGCTGCGTTGTTCCGA [Mb1]
binding signal [7]: 0.488 OD405

ATCCGTCACACCTGCTCTAGACGAATATTGTATCCTCATTAGATCAAAAACGGGTGGTGTTGGCTCCCGTAT [CTx 2R (CTx 2R-2h)]
binding result [5]: no binding

ACGCACACCAGAGACAAGTAGCCCCCCAAACGCG [G15 T1]
binding result [1]: no binding
